No constants are given. Whether binding was seen depends on the method and setting. Some entries that bind do so weakly or less than the wild type.
Biological target: Haptoglobin protein (UniProt P00738)
Assay: equilibrium batch binding to ligand-conjugated resin, 1.5 mg/mL haptoglobin, 60 min, A280 of unbound

Sequences of proteins named here, by UniProt entry; tags and fusion partners are left off. A change or cut given only in a name is not applied to a line headed by its entry.
UniProt P00738: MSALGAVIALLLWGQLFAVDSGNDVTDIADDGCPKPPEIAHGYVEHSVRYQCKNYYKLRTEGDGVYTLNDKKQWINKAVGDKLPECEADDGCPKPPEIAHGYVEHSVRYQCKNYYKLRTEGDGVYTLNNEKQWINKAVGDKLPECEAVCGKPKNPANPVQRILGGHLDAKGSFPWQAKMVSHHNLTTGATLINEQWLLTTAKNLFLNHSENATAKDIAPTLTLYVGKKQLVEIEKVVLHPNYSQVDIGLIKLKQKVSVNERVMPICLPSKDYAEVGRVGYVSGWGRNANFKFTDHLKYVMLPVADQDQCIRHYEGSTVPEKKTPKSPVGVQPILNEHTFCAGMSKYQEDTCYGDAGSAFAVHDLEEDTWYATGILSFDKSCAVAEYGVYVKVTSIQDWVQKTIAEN

Row | binding | Binder
1 | binds | SEQ ID NO. 112 (designed binder) ligand: MVDAKFDKELEEARAEIERPPNLTEEQRRNFIQALRDDPSSSAGLLALAKHWNDKQAPKAAAHHHHHHC
2 | binds | SEQ ID NO. 48 (designed binder) ligand: MVDAKFDKELEEARAEIERLPNLTEEQRRNLILALRDDPSSSAGLLALAKHWNDKQAPKAAAHHHHHHC
3 | binds | SEQ ID NO. 62 (designed binder) ligand: MVDAKFDKELEEARAEIERLPNLTEERRRNFIQALRDDPSSSAGLLALAKHWNDKQAPKAAAHHHHHHC
4 | binds | SEQ ID NO. 52 (designed binder) ligand: MVDAKFDKELEEARAEIERLPNLTEEHRRNFIQALRDDPSSSAGLLALAKHWNDKQAPKAAAHHHHHHC
5 | binds | SEQ ID NO. 65 (designed binder) ligand: MVDAKFDKELEEARAETERLPNLTEEQRRNFIQALRDDPSSSAGLLALPEHWNDKQAPKAAAHHHHHHC
6 | binds | SEQ ID NO. 58 (designed binder) ligand: MVDAKFDKELEEARAEIERLPNLTEEQRRNFIQTLRDDPSSSAGLLALAKHWNDKQAPKAAAHHHHHHC
7 | binds | SEQ ID NO. 46 (designed binder) ligand: MVDAKFDKELEEARAEIERLPNLTEEQRHSFIQALRKDPSDSASLLAVAKNWNDKQAPKAAAHHHHHHC
8 | binds | SEQ ID NO. 60 (designed binder) ligand: MVDAKFDKELEEARAEIERLPNLTEEQRRNLIQALRDDSSSSAGLLALAKHWNDKQAPKAAAHHHHHHC
9 | binds | SEQ ID NO. 50 (designed binder) ligand: MVDAKFDKELDEARAEIERLPNLTEEQRRNFFQALRDDPSSSAGLLALAKHWNDKQAPKAAAHHHHHHC
10 | binds | SEQ ID NO. 123 (designed binder) ligand: MVDAKFDKELEEARAEIERLPNLTEHQRRYFIFALRDDPSKSALLLAAAKRHNDEQAPKVDAKFDKELEEARAEIERLPNLTEHQRRYFIFALRDDPSKSALLLAAAKRHNDEQAPKVDAKFDKELEEARAEIERLPNLTEHQRRYFIFALRDDPSKSALLLAAAKRHNDEQAPKAAAHHHHHHC
11 | binds | SEQ ID NO. 67 (designed binder) ligand: MVDAKFDKELKEARAEIERLPNLTEEQRRNLIQALRKDPSDSASLLAIAKNWNDKQAPKAAAHHHHHRL
12 | binds | SEQ ID NO. 97 (designed binder) ligand: MVDAKFDKELEEARAEIERLPNLTEHQRRNFIHALRHDPSDSAALLAIAKAWNDRQAPKAAAHHHHHHC
13 | binds | SEQ ID NO. 107 (designed binder) ligand: MVDAKFDKELEEARAEIERLPNLTEQQRRNFIQALRKDPSDSASLLAIAKNWNDKQAPKAAAHHHHHHC
14 | binds | SEQ ID NO. 44 (designed binder) ligand: MVDAKFDKELEEARAEIERLPNLTEEQRRNLIQALRKDPSDSASLLAIAKNWNDKQAPKAAAHHHHHHC
15 | binds | SEQ ID NO. 105 (designed binder) ligand: MVDAKFDKELEEARAEIERLPNLTEQQRRNFIHALRHDPSDSASLLAIAKNWNDKQAPKAAAHHHHHHC
16 | binds | SEQ ID NO. 103 (designed binder) ligand: MVDAKFDKELEEARAEIERLPNLTEHQRRNFIQALRKDPSDSASLLAIAKNWNDKQAPKAAAHHHHHHC
17 | binds | SEQ ID NO. 111 (designed binder) ligand: MVDAKFDKELEEARAEIERLPNLTEHQRRNFIQALRKDPSDSASLLAIAKNWDDKQAPKAAAHHHHHHC
18 | binds | SEQ ID NO. 51 (designed binder) ligand: MVDAKFDKELEEARAEIERLPDLTEEQRRNFIQALRKDPSDSASLLAIVKNWNDKQAPKAAAHHHHHHC
19 | binds | SEQ ID NO. 104 (designed binder) ligand: MVDAKFDKELEEARAEIERLPNLTEHQRRNFIHALRRDPSDSASLLAIAKNWNDKQAPKAAAHHHHHHC
20 | binds | SEQ ID NO. 66 (designed binder) ligand: MVDAKFDKELEEARVEIERLPNLTEEQRRNLIQALRKDPSDSASLLAIAKNWNDKQAPKAAAHHHHHHC
21 | binds | SEQ ID NO. 57 (designed binder) ligand: MVDAKFDKELEEARAEIERLPNLTEEQRRNFIQAPRKDPSDSASLLALAKNWNDKQAPKAAAHHHHHHC
22 | binds | SEQ ID NO. 101 (designed binder) ligand: MVDAKFDKELEEARAEIERLPNLTEHQRRNFIHALRHDPSDSASLLAIAKNWNDKRAPKAAAHHHHHHC
23 | binds | SEQ ID NO. 54 (designed binder) ligand: MVDAKFDKELEEARAEIERLPNLTEEQRREFIKFLRGDPSDSASLLAIAKNWNDKQAPKAAAHHHHHHC

Row | binding | Binder
24 | binds | SEQ ID NO. 106 (designed binder) ligand: MVDAKFDKELEEARAEIERLPNLTEQQRRNFIHALRKDPSDSASLLAIAKNWNDKQAPKAAAHHHHHHC
25 | binds | SEQ ID NO. 110 (designed binder) ligand: MVDAKFDKELEEARAEIERLPNLTEEQRRNFIQALRDDPSSSAGLLALAKHWNDKQAPKAAAHHHHHHC
26 | binds | SEQ ID NO. 108 (designed binder) ligand: MVDAKFDKELEEARAEIERLPNLTEHQRRNFIHALRQDPSDSASLLAIAKNWNDKQAPKAAAHHHHHHC
27 | binds | SEQ ID NO. 99 (designed binder) ligand: MVDAKFDKELEEARAEIERLPNLTEQQRRNFIFALRHDPSDSAALLAIAKAWNDRQAPKAAAHHHHHHC
28 | binds | SEQ ID NO. 116 (designed binder) ligand: MVDAKFDKELEEARAEIERLPNLTEEQRRNFIQALRKDPSDAASLLAIAKNWNDKQAPKAAAHHHHHHC
29 | binds | SEQ ID NO. 49 (designed binder) ligand: MVDAKFDKELEEARAEIERLPNLTELQRREFIKFLRGDPSDSASLLAIAKNWNDKQAPKAAAHHHHHHC
30 | binds | SEQ ID NO. 45 (designed binder) ligand: MVDAKFDKELEEARAEIERLPNLTEEQRRNFIQALRDDPSSSAGLLALAKHWNDKQAPKAAAHHHHHHC
31 | binds | SEQ ID NO. 55 (designed binder) ligand: MVDAKFDKELEEARAEIERLPNLTEEQRRNFIQALRKDPSDSAYLLAIAKHWNDKQAPKAAAHHHHHHC
32 | binds | SEQ ID NO. 59 (designed binder) ligand: MVDAKFDKELEEARAEIERLPNLTEEQRRNIIRALRKDPSDSASLLAIAKNWNDKQAPKAAAHHHHHHC
33 | binds | SEQ ID NO. 113 (designed binder) ligand: MVDAKFDKELEEARAEIEHLPNLTEHQRRNFIHALRKDPSDSASLLAIAKNWNDKQAPKAAAHHHHHHC
34 | binds | SEQ ID NO. 61 (designed binder) ligand: MVDAKFDKELEEARAEIERLPNLTEEQRRNLIQALRGDPSQSATLLAIAKNWNDKQAPKAAAHHHHHHC
35 | binds | SEQ ID NO. 100 (designed binder) ligand: MVDAKFDKELEEARAEIERLPNLTEQQRRHFIHALRHDPSDSAPLLAIAKAWNDKQAPKAAAHHHHHHC
36 | binds | SEQ ID NO. 64 (designed binder) ligand: MVDAKFDKELEEARAEIERLQNLTEEQRRNLIQALREDPSDSASLLAIAKNWNDKQAPKAAAHHHHHHC
37 | binds | SEQ ID NO. 114 (designed binder) ligand: MVDAKFDKELEEARAEIERLPNLTGHQRRNFIHALRHDPSDSAPLLAIAKAWNDHQAPKAAAHHHHHHC
38 | binds | SEQ ID NO. 47 (designed binder) ligand: MVDAKFDKELEEARAEIERLPNLTEEQRRNFIQAQRKDPSDSASLLGIAKNWNDKQAPKAAAHHHHHHC
39 | binds | SEQ ID NO. 115 (designed binder) ligand: MVDAKFDKELEEARAEIERLPNLTVEQRRNFIQALRKDPSDSASLLAIAKNWNDKQAPKAAAHHHHHHC
40 | binds | SEQ ID NO. 53 (designed binder) ligand: MVDAKFDKELEEARAEIERLPNLTEELRRNFIQALRKDPSDSASLLAIAKNWNDKQAPKAAAHHHHHHC
41 | binds | SEQ ID NO. 102 (designed binder) ligand: MVDAKFDKELEEARAEIERLPNLTEHQRRNFIHALRHDPSDSASLLAIAKNWNDKQAPKAAAHHHHHRC
42 | binds | SEQ ID NO. 98 (designed binder) ligand: MVDAKFDKELEEARAEIERLPNLTEHQRRNFIHALRQDPSDSAALLAIAKAWNDRQAPKAAAHHHHHHC
43 | binds | SEQ ID NO. 109 (designed binder) ligand: MVDAKFDKELEEARAEIKRLPNLTEHQRRNFIQALRKDPSDSASLLAIAKNWNDKQAPKAAAHHHHHHC
44 | binds | SEQ ID NO. 56 (designed binder) ligand: MVDAKFDKELEEARAEIERLPNLTEEQRRNFIQALRNDPSSSAGLLALAKHWNDKQAPKAAAHHHHHHC
45 | binds | SEQ ID NO. 63 (designed binder) ligand: MVDAKFDKELEEARAEIERLPNLTELQRREFIKFLRCDPSQSATLLAIAKTWNDKQAPKAAAHHHHHHC
